Among the data in publication PMC12611769, “Phase-separated NDF−FACT condensates facilitate transcription elongation on chromatin” (Nature Cell Biology, 2025) are binding values, retold here.

Sequences of proteins named here, by UniProt entry; tags and fusion partners are left off. A change or cut given only in a name is not applied to a line headed by its entry.
UniProt Q49A26: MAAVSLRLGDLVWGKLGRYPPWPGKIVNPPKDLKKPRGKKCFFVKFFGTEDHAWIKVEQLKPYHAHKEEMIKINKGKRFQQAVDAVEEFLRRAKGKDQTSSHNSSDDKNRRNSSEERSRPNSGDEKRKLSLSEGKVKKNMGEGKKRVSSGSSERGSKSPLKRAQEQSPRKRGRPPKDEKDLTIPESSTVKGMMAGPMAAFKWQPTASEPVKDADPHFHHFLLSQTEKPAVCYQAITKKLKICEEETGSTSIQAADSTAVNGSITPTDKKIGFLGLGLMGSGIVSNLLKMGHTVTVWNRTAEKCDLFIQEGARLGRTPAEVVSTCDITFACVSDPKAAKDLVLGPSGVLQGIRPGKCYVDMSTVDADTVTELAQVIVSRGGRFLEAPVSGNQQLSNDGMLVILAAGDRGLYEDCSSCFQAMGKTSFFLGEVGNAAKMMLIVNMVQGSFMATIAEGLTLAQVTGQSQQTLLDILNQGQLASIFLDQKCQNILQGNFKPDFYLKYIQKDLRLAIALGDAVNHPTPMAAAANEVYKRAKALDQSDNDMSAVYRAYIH
UniProt Q9Y5B9: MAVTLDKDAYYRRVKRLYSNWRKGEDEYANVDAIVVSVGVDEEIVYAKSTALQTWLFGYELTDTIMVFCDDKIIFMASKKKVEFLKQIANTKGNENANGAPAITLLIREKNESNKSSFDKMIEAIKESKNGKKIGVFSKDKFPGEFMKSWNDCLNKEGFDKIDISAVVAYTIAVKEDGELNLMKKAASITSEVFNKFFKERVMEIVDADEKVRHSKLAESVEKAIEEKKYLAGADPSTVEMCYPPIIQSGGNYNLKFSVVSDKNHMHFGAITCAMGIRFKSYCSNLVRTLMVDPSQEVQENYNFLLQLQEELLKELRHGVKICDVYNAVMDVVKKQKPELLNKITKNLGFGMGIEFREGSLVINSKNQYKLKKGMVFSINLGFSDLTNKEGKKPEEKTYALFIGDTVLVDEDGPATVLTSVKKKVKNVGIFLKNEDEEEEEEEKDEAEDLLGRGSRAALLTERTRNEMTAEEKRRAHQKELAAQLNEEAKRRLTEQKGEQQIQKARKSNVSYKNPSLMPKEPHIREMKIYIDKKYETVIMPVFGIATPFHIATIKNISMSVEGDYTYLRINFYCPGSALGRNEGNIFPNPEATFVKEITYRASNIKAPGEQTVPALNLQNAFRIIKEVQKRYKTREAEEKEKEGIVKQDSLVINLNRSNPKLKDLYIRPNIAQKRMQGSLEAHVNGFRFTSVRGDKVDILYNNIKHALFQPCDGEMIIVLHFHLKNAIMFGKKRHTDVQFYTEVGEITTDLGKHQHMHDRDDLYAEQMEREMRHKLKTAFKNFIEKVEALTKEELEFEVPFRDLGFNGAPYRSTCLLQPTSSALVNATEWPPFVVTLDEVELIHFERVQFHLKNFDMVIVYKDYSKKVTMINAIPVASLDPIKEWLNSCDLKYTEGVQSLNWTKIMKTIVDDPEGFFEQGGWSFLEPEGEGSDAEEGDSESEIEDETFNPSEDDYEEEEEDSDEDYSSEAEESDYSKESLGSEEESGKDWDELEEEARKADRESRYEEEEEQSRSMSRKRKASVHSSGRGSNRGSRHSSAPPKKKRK

The test addresses N-terminal PWWP domain of NDF, His6-tagged truncate (human) (UniProt Q49A26). Description: pull-down; Ni-NTA beads, His6-tagged NDF (WT, truncates or mutants; 40 pmol) as bait with 20 pmol Flag-tagged hSpt16 or FACT in 300 µl of 10 mM Tris-HCl pH 7.5, 200 mM NaCl, 0.2% Nonidet P-40, 10% glycerol, 4 °C 3 h; SDS-PAGE, silver staining; both purified.

Results are given in words; binding and its absence hold for the method and conditions named. Binding can be weak; no strength is given.

Regarding “Flag-tagged hSpt16 (from UniProt Q9Y5B9 1-1047)”, the binding result is “binds”.
